Test results: publication doi:10.1101/2024.09.04.610270
Like-named read-outs stand apart in the source and are kept apart here. These are yes or no findings as the source states them, for the method shown. For part of these data: In cells and extracts the contact can be indirect. Some entries that bind do so weakly or less than the wild type. For part of these data: Sequences can lack the tags named with a protein.

The chains behind the UniProt entries cited, without tags or fusion partners.
UniProt Q9LY75: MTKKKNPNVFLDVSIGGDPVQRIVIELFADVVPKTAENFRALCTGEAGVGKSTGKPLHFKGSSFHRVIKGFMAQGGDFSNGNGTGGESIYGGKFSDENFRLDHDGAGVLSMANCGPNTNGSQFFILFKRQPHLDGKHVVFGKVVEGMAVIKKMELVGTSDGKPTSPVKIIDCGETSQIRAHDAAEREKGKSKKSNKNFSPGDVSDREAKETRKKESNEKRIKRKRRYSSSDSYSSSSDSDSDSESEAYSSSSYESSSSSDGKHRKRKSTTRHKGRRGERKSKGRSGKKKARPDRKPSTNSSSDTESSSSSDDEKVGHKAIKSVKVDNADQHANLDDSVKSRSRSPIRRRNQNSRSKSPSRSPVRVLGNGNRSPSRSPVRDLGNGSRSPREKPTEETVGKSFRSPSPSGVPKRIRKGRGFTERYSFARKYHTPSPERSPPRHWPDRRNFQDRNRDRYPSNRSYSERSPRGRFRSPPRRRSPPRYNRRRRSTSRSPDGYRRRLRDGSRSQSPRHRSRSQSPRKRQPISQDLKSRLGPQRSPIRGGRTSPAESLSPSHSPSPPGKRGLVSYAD

T1: RS2Z32:^CYFP (Arabidopsis thaliana) (UniProt Q9FYB7)
T1 sequence: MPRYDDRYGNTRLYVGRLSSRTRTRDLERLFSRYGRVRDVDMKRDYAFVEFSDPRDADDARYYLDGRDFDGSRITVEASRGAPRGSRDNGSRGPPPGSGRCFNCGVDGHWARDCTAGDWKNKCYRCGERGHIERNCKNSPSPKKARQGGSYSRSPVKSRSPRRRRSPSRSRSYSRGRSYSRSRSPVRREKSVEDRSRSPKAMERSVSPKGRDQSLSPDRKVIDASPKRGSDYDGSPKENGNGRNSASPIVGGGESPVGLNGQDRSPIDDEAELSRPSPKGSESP

T2: RS2Z33:^CYFP (Arabidopsis thaliana) (UniProt Q8VYA5)
T2 sequence: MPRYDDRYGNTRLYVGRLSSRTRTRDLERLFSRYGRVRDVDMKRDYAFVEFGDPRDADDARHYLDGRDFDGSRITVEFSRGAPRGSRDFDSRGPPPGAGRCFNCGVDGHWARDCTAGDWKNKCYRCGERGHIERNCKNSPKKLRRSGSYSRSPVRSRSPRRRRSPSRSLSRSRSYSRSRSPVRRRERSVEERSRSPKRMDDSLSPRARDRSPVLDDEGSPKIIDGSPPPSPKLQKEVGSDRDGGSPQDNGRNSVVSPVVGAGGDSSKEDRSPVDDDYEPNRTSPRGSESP

T3: RS2Z32mutRRM (Arabidopsis thaliana) (UniProt Q9FYB7)
T3 sequence: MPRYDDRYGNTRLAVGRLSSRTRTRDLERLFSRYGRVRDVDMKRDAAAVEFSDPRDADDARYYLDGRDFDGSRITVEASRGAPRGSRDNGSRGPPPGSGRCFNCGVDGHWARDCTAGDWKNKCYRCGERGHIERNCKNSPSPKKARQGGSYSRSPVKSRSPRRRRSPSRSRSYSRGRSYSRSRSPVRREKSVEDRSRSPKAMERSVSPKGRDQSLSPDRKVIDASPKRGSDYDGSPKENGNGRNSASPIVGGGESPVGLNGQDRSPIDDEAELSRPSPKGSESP

T4: RS2Z33mutRRM (Arabidopsis thaliana) (UniProt Q8VYA5)
T4 sequence: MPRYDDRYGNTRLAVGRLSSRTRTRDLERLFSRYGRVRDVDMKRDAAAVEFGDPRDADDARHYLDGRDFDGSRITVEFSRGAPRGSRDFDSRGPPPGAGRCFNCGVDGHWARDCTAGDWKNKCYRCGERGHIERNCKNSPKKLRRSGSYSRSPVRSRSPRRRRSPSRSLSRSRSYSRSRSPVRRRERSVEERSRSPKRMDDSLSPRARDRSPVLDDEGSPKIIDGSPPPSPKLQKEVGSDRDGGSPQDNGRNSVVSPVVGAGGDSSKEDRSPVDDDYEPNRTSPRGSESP

T5: arginine/serine-rich zinc knuckle-containing protein 32 (RS2Z32), native full-length, yeast two-hybrid bait (Arabidopsis thaliana) (UniProt Q9FYB7)
T5 sequence: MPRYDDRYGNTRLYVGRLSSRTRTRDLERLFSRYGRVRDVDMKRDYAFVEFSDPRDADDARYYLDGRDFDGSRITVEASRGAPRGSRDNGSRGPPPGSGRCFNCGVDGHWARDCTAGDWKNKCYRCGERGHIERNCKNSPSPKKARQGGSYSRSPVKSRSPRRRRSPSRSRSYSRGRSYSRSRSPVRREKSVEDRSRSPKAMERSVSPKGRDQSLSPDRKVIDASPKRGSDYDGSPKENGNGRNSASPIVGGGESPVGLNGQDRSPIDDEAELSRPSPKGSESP

T6: arginine/serine-rich zinc knuckle-containing protein 33 (RS2Z33), native full-length, yeast two-hybrid bait (Arabidopsis thaliana) (UniProt Q8VYA5)
T6 sequence: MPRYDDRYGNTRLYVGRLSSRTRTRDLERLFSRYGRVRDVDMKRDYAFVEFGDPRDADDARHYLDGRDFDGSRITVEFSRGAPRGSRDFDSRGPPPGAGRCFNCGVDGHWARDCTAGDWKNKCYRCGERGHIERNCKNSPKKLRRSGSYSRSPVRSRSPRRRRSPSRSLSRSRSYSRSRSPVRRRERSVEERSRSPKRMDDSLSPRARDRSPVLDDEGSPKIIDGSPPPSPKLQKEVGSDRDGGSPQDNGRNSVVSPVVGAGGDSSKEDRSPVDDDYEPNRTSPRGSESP

T7: RS2Z32ΔZnKs+RS+SP (the sole RRM of RS2Z32) (Arabidopsis thaliana) (UniProt Q9FYB7)
T7 sequence: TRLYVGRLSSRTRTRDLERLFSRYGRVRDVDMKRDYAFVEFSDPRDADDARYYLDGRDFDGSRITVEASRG

T8: RS2Z33ΔZnKs+RS+SP (the sole RRM of RS2Z33) (Arabidopsis thaliana) (UniProt Q8VYA5)
T8 sequence: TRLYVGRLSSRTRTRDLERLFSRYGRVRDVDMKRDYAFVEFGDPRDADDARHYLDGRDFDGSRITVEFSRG


Experiments:
[1] = target: T1, RS2Z32:^CYFP (Arabidopsis thaliana); assay: split reporter
[2] = target: T2, RS2Z33:^CYFP (Arabidopsis thaliana); assay: split reporter
[3] = target: T3, RS2Z32mutRRM (Arabidopsis thaliana); assay: two-hybrid
[4] = target: T4, RS2Z33mutRRM (Arabidopsis thaliana); assay: two-hybrid
[5] = target: T5, arginine/serine-rich zinc knuckle-containing protein 32 (RS2Z32), native full-length, yeast two-hybrid bait (Arabidopsis thaliana); assay: two-hybrid
[6] = target: T6, arginine/serine-rich zinc knuckle-containing protein 33 (RS2Z33), native full-length, yeast two-hybrid bait (Arabidopsis thaliana); assay: two-hybrid
[7] = target: T5, arginine/serine-rich zinc knuckle-containing protein 32 (RS2Z32), native full-length, yeast two-hybrid bait (Arabidopsis thaliana); assay: two-hybrid; remark: listed apart in the source
[8] = target: T7, RS2Z32ΔZnKs+RS+SP (the sole RRM of RS2Z32) (Arabidopsis thaliana); assay: two-hybrid
[9] = target: T8, RS2Z33ΔZnKs+RS+SP (the sole RRM of RS2Z33) (Arabidopsis thaliana); assay: two-hybrid
[10] = target: T6, arginine/serine-rich zinc knuckle-containing protein 33 (RS2Z33), native full-length, yeast two-hybrid bait (Arabidopsis thaliana); assay: two-hybrid; remark: listed apart in the source

binding [1]	binding [2]	binding [3]	binding [4]	binding [5]	binding [6]	binding [7]	binding [8]	binding [9]	binding [10]	Molecule
binds	binds	–	–	–	–	–	–	–	–	SR45.1:^NYFP (protein, UniProt Q9SEE9-1 1-414) MAKPSRGRRSPSVSGSSSRSSSRSRSGSSPSRSISRSRSRSRSLSSSSSPSRSVSSGSRSPPRRGKSPAGPARRGRSPPPPPSKGASSPSKKAVQESLVLHVDSLSRNVNEAHLKEIFGNFGEVIHVEIAMDRAVNLPRGHGYVEFKARADAEKAQLYMDGAQIDGKVVKATFTLPPRQKVSSPPKPVSAAPKRDAPKSDNAAADAEKDGGPRRPRETSPQRKTGLSPRRRSPLPRRGLSPRRRSPDSPHRRRPGSPIRRRGDTPPRRRPASPSRGRSPSSPPPRRYRSPPRGSPRRIRGSPVRRRSPLPLRRRSPPPRRLRSPPRRSPIRRRSRSPIRRPGRSRSSSISPRKGRGPAGRRGRSSSYSSSPSPRRIPRKISRSRSPKRPLRGKRSSSNSSSSSSPPPPPPPRKT
–	–	binds	binds	binds	binds	–	binds	binds	binds	SR45.2 (protein, UniProt Q9SEE9-2 1-407) MAKPSRGRRSPSVSGSSSRSSSRSRSGSSPSRSISRSRSRSRSLSSSSSPSRSVSSGSRSPPRRGKSPAGPARRGRSPPPPPSKGASSPSKKAVQESLVLHVDSLSRNVNEAHLKEIFGNFGEVIHVEIAMDRAVNLPRGHGYVEFKARADAEKAQLYMDGAQIDGKVVKATFTLPPRQKVSSPPKPVSAAPKRDAPKSDNAAADAEKDGGPRRPRERLSPRRRSPLPRRGLSPRRRSPDSPHRRRPGSPIRRRGDTPPRRRPASPSRGRSPSSPPPRRYRSPPRGSPRRIRGSPVRRRSPLPLRRRSPPPRRLRSPPRRSPIRRRSRSPIRRPGRSRSSSISPRKGRGPAGRRGRSSSYSSSPSPRRIPRKISRSRSPKRPLRGKRSSSNSSSSSSPPPPPPPRKT
binds	binds	–	–	–	–	–	–	–	–	SR34:^NYFP (protein, UniProt O22315 1-303) MSSRSSRTVYVGNLPGDIREREVEDLFSKYGPVVQIDLKVPPRPPGYAFVEFDDARDAEDAIHGRDGYDFDGHRLRVELAHGGRRSSDDTRGSFNGGGRGGGRGRGDGGSRGPSRRSEFRVLVTGLPSSASWQDLKDHMRKGGDVCFSQVYRDARGTTGVVDYTCYEDMKYALKKLDDTEFRNAFSNGYVRVREYDSRKDSRSPSRGRSYSKSRSRSRGRSVSRSRSRSRSRSRSPKAKSSRRSPAKSTSRSPGPRSKSRSPSPRRSRSRSRSPLPSVQKEGSKSPSKPSPAKSPIHTRSPSR

More lines, now with the values behind:

Molecule	binding [1]	binding [2]	binding [3]	binding [4]	binding [5]	binding [6]	binding [7]	binding [8]	binding [9]	binding [10]
CypRS64:^NYFP (from UniProt Q9LY75 1-570)	binds	binds	–	–	–	–	–	–	–	–
CypRS64 (from UniProt Q9LY75 1-570)	–	–	no binding	no binding	binds	binds	binds	–	–	–
CypRS92 (protein, UniProt Q8RWY7 1-837) MAKKKNPQVFMDVSIDGDPAETMVFELFPEVAPKTSENFRALCTGEKGIGPRSGKPLHYKGSFFHRIMKGSSAQAGDFVNRNGTAGESIYAGKFPDESPKLRHEETGLLSMSIADRDKFGSHFHITFRPNQQLDRNNVVFGKLIQGKEILKKIERVGDEEGKPTVSVKIIRCGEYSGDKKKSDGKKNGKHKKSLRVRRKKRRRHSSSESESSSDSETDSSESDSESDSDLSSPSFLSSSSHERQKKRKRSSKKDKHRRSKQRDKRHEKKRSMRDKRPKRKSRRSPDSLEDSNSGSEASLSDVNVEIGAKKRKHRVSRRTGNSAPAVEKEAESLHQGKRKGPDLLENRGLRSNGISDAASEQISDRQPDIVDDHPSKSRSRSLSPKRTVSKSTSVSPRRSQSKSPSSSPRWNGGRSPAKGSRQVKNLTNSRRESPGSEEKGRHVRRSPTKSVSRSPVRVKKERDISRSPSKSLSRSPLRSPKRVISRSPVRGRIARSPSRSPVRSASRGSLGRGPLRRSSRRSPSRSPVRSSRRSLSRSPIQLSRRSLSRSPTRLSRRSLSRSPIRSPRKSVSRSPVRSSRKSVSRSPVRSSRRRISRSPVRSSRKSVSRSPIRLSRRSISRSPIRLSRRSISRSPVRGRRRISRSPVPARRRSVRPRSPPPDRRRSLSRSASPNGRIRRGRGFSQRFSYARRYRTSPSPDRSPYRFSDRSDRDRFRSRRRFSPSRFRSPLRGRTPPRYRRRSRSVSPGLCYRNRRYSRSPIRSRSPPYRKRRSPSASHSLSPSRSRSRSKSYSKSPIGTGKARSVSRSPSKARSPSKSDSTSSDNSPGGKKGLVAYD	–	–	no binding	no binding	binds	binds	–	–	–	–
SCL30 (protein, UniProt Q8L3X8 1-262) MRRYSPPYYSPPRRGYGGRGRSPPPPPPRRGYGGGGGGGGRRGSSHGSLLVRNIPLDCRPEELREPFERFGPVRDVYIPRDYYSGQPRGFAFVEFVDAYDAGEAQRSMNRRSFAGREITVVVASESRKRPEEMRVKTRTRSREPSGSRDRSHGRSRSRSISRSRSPRRPSDSRSRYRSRSYSPAPRRRGGPPRGEEDENYSRRSYSPGYEGAAAAAPDRDRNGDNEIREKPGYEAEDRRRGGRAVSRSPSGSRSRSVEVSPR	–	–	binds	binds	binds	binds	binds	–	–	binds
SCL30:^NYFP (protein, UniProt Q8L3X8 1-262) MRRYSPPYYSPPRRGYGGRGRSPPPPPPRRGYGGGGGGGGRRGSSHGSLLVRNIPLDCRPEELREPFERFGPVRDVYIPRDYYSGQPRGFAFVEFVDAYDAGEAQRSMNRRSFAGREITVVVASESRKRPEEMRVKTRTRSREPSGSRDRSHGRSRSRSISRSRSPRRPSDSRSRYRSRSYSPAPRRRGGPPRGEEDENYSRRSYSPGYEGAAAAAPDRDRNGDNEIREKPGYEAEDRRRGGRAVSRSPSGSRSRSVEVSPR	binds	binds	–	–	–	–	–	–	–	–
